# Results deposited as PubChem BioAssay AID1671195 (Yale University, 2021).
# Aim: 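Genes whose knockdown alters LDL uptake in liver cancer cells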 (primary screen)
# Cell system: human Huh7 hepatoma cells
# Reagent: siRNA pool against human genes, 18 nM
# Duration: about 2 to 2.5 days of knockdown, then 8 h LDL uptake
# Challenge: DiI-labelled LDL at 30 µg/ml for 8 h, in lipoprotein-deficient serum medium
# Read-out: 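Per-cell DiI-LDL intensity by automated imaging; well means scaled to the plate median and given as a robust z-score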
# Direction: robust z-score: higher = more LDL uptake after knockdown
# Call rule: 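a gene counts as active if at least two replicate z-scores exceed ±2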
# In all, the deposit lists about 22,000 reagents; this is a random part of them. Of all reagents, about 1,510 (6.9%) got an active call. 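Active includes knockdowns raising or lowering LDL uptake; positive z-scores mean more uptake, negative mean less.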 The numbers tell different reagents against one gene apart.
gene knocked down,pool no.,"robust z-score, replicate 1","robust z-score, replicate 2","robust z-score, replicate 3",outcome
YPEL2 (yippee like 2),1,-0.385,0.171,0.0228,inactive
TTC24 (tetratricopeptide repeat domain 24),1,4.9,4.84,4.55,active
EDAR (ectodysplasin A receptor),1,0.942,2.22,0.39,inactive
STX6 (syntaxin 6),1,0.486,0.187,0.776,inactive
CRNDE (colorectal neoplasia differentially expressed),1,-1.14,-1.12,-1.05,inactive
MINDY1 (MINDY lysine 48 deubiquitinase 1),1,0.601,-0.281,0.205,inactive
RNF182 (ring finger protein 182),1,1.2,1.02,1.64,inactive
LEMD3 (LEM domain containing 3),1,1.14,-0.461,0.0661,inactive
FAM161B (FAM161 centrosomal protein B),1,-0.088,-0.678,-0.924,inactive
ATG9B (autophagy related 9B),1,-1.3,-1.51,-1.56,inactive
SAMTOR (S-adenosylmethionine sensor upstream of mTORC1),1,2.48,2.6,2.94,active
RARRES2 (retinoic acid receptor responder 2),1,2.44,1.92,1.64,active
GAD1 (glutamate decarboxylase 1),1,-1.3,0.653,-0.274,inactive
VMAC,1,0.8,0.262,0.847,inactive
RBM3 (RNA binding motif protein 3),1,0.0194,-0.428,-0.66,inactive
GLIPR1L1 (GLIPR1 like 1),1,0.375,0.427,0.0215,inactive
AFTPH (aftiphilin),1,-0.321,-0.319,-0.0905,inactive
HSF4 (heat shock transcription factor 4),1,-0.957,-0.643,-0.747,inactive
ERN2 (endoplasmic reticulum to nucleus signaling 2),1,-0.0795,0.414,-0.0836,inactive
ZNF648 (zinc finger protein 648),1,-0.0973,-0.363,-0.503,inactive
RPL31P50 (ribosomal protein L31 pseudogene 50),1,2.68,1.15,1.22,inactive
NEU1 (neuraminidase 1),1,1.04,0.677,1.32,inactive
TRIM4 (tripartite motif containing 4),1,-0.76,-1.36,-0.0907,inactive
AKAP19 (A-kinase anchoring protein 19),1,-0.941,-0.692,-1.23,inactive
GARIN6 (golgi associated RAB2 interactor family member 6),1,-1.24,-1.24,0.103,inactive
EPHX2 (epoxide hydrolase 2),1,-1.25,-0.704,-0.965,inactive
LOC346305 (retired record),1,0.178,-0.302,-0.472,inactive
UBQLN3 (ubiquilin 3),1,0.596,-1,0.918,inactive
FDCSP (follicular dendritic cell secreted protein),1,0.836,1.14,1.5,inactive
KCNJ5 (potassium inwardly rectifying channel subfamily J member 5),1,2.41,1.01,3.02,active
RNF186 (ring finger protein 186),1,-1.29,1.27,-1.13,inactive
YWHAQ,1,2.49,1.32,2.21,active
LOC440691 (retired record),1,-0.787,-0.808,-0.821,inactive
PGBD5 (piggyBac transposable element derived 5),1,0.294,-0.443,-0.242,inactive
ACTR1B (actin related protein 1B),1,-1.17,-1.34,-1.14,inactive
DDX51 (DEAD-box helicase 51),1,1.03,1.15,0.886,inactive
TAF13 (TATA-box binding protein associated factor 13),1,1.11,0.724,0.576,inactive
IL17RE (interleukin 17 receptor E),1,-0.413,-0.73,-0.474,inactive
POM121L2 (POM121 transmembrane nucleoporin like 2),1,0.782,0.21,0.393,inactive
POM121L2 (POM121 transmembrane nucleoporin like 2),2,0.974,-0.646,0.145,inactive
PHYKPL (5-phosphohydroxy-L-lysine phospho-lyase),1,-0.742,-0.376,-0.17,inactive
SIVA1 (SIVA1 apoptosis inducing factor),1,-0.497,0.301,-0.772,inactive
NAV2-AS4 (NAV2 antisense RNA 4),1,-0.453,-0.0828,-0.281,inactive
LOC219638 (retired record),1,-0.252,-0.569,-0.348,inactive
LHX4 (LIM homeobox 4),1,0.399,2.42,0.848,inactive
AP2B1 (adaptor related protein complex 2 subunit beta 1),1,-1.22,-0.66,-0.925,inactive
OR2W3 (olfactory receptor family 2 subfamily W member 3),1,-1.22,-1.06,-0.92,inactive
LOC151443 (retired record),1,0.095,0.306,-0.437,inactive
MGAT4D (MGAT4 family member D),1,0.858,0.287,0.761,inactive
GAS8-AS1 (GAS8 antisense RNA 1),1,-2,-1.22,-2.18,active
SLC25A21,1,1.31,-1.16,-2.92,inactive
LOC402188 (retired record),1,-0.716,-0.76,-1,inactive
CYYR1 (cysteine and tyrosine rich 1),1,-1.19,-0.206,-0.284,inactive
CCDC18 (coiled-coil domain containing 18),1,0.898,0.773,0.624,inactive
HDHD5 (haloacid dehalogenase like hydrolase domain containing 5),1,-1.13,-2.91,-0.717,inactive
GVQW3 (GVQW motif containing 3),1,0.642,0.379,0.502,inactive
CREG2 (cellular repressor of E1A stimulated genes 2),1,-0.324,0.052,-0.838,inactive
SCG3 (secretogranin III),1,1,-0.555,0.135,inactive
SPATA17 (spermatogenesis associated 17),1,-1.21,-0.109,0.00279,inactive
IDS (iduronate 2-sulfatase),1,0.861,0.423,1.22,inactive
NCOA6 (nuclear receptor coactivator 6),1,-0.337,-1.44,-0.26,inactive
TRIM42 (tripartite motif containing 42),1,0.675,-0.298,0.135,inactive
TNRC6C (trinucleotide repeat containing adaptor 6C),1,-0.458,-0.66,-0.113,inactive
BRICD5 (BRICHOS domain containing 5),1,0.541,-0.0989,-0.0478,inactive
CDC25A (cell division cycle 25A),1,-0.869,-0.215,-0.782,inactive
MRTFA (myocardin related transcription factor A),1,-0.0855,0.287,-0.144,inactive
EDNRB (endothelin receptor type B),1,-0.724,0.0652,-0.509,inactive
MAP3K12 (mitogen-activated protein kinase kinase kinase 12),1,-0.284,0.0483,-0.331,inactive

Entries above with an active call:
gene knocked down,pool no.,"robust z-score, replicate 1","robust z-score, replicate 2","robust z-score, replicate 3",outcome
TTC24 (tetratricopeptide repeat domain 24),1,4.9,4.84,4.55,active
SAMTOR (S-adenosylmethionine sensor upstream of mTORC1),1,2.48,2.6,2.94,active
RARRES2 (retinoic acid receptor responder 2),1,2.44,1.92,1.64,active
KCNJ5 (potassium inwardly rectifying channel subfamily J member 5),1,2.41,1.01,3.02,active
YWHAQ,1,2.49,1.32,2.21,active
GAS8-AS1 (GAS8 antisense RNA 1),1,-2,-1.22,-2.18,active
